{"source": "paper PMC11125359", "about": "(Pharmaceuticals, 2024)", "data": [{"test_system": "human lung cancer (A549) cell line", "assay": "Cytotoxic activity, MTT assay, lung (A549)", "conditions": "IC50 on normal cells (WI-38)/IC50 on A549", "values": [{"smiles": "Cc1c(C=Nc2[nH]nc(Nc3ccccc3)c2C(=O)Nc2ccccc2)c(=O)n(-c2ccccc2)n1C", "note": "[7a]", "Therapeutic Index (TI), Lung (A549)": 14.90}, {"smiles": "O=C(Nc1ccccc1)c1c(Nc2ccccc2)n[nH]c1N=Cc1ccc(N2CCCCC2)cc1", "note": "[5a]", "Therapeutic Index (TI), Lung (A549)": 6.41}, {"smiles": "COc1ccc(Nc2n[nH]c(N=Cc3ccc(N4CCCCC4)cc3)c2C(=O)Nc2ccc(Cl)cc2)cc1", "note": "[5f]", "Therapeutic Index (TI), Lung (A549)": 8.15}, {"smiles": "COc1ccc(Nc2n[nH]c(/N=C/c3ccc(N4CCCCC4)cc3)c2C(=O)Nc2ccc(C)cc2)cc1", "note": "[5e]", "Therapeutic Index (TI), Lung (A549)": 13.57}, {"smiles": "COc1ccc(Nc2n[nH]c(/N=C/c3ccc(N4CCCCC4)cc3)c2C(=O)Nc2ccccc2)cc1", "note": "[5d]", "Therapeutic Index (TI), Lung (A549)": 14.83}, {"smiles": "COc1ccc(Nc2n[nH]c(N=Cc3c(C)n(C)n(-c4ccccc4)c3=O)c2C(=O)Nc2ccc(Cl)cc2)cc1", "note": "[7f]", "Therapeutic Index (TI), Lung (A549)": 9.73}, {"smiles": "COc1cccc2c1C(=O)c1c(O)c3c(c(O)c1C2=O)C[C@@](O)(C(=O)CO)C[C@@H]3O[C@H]1C[C@H](N)[C@H](O)[C@H](C)O1", "note": "[Doxorubicin, reference compound]", "Therapeutic Index (TI), Lung (A549)": 8.36}]}]}
